Results are given in words; binding and its absence hold for the method and conditions named. In cells and extracts the contact can be indirect. Some entries that bind do so weakly or less than the wild type. Where a sequence is shown, tags or fusion partners need not be part of it.
Columns and labels:
PUB4-FLAG (Arabidopsis) = biological target: T1, PUB4-FLAG (Arabidopsis) (UniProt O22193); experiment: co-IP
T1 sequence: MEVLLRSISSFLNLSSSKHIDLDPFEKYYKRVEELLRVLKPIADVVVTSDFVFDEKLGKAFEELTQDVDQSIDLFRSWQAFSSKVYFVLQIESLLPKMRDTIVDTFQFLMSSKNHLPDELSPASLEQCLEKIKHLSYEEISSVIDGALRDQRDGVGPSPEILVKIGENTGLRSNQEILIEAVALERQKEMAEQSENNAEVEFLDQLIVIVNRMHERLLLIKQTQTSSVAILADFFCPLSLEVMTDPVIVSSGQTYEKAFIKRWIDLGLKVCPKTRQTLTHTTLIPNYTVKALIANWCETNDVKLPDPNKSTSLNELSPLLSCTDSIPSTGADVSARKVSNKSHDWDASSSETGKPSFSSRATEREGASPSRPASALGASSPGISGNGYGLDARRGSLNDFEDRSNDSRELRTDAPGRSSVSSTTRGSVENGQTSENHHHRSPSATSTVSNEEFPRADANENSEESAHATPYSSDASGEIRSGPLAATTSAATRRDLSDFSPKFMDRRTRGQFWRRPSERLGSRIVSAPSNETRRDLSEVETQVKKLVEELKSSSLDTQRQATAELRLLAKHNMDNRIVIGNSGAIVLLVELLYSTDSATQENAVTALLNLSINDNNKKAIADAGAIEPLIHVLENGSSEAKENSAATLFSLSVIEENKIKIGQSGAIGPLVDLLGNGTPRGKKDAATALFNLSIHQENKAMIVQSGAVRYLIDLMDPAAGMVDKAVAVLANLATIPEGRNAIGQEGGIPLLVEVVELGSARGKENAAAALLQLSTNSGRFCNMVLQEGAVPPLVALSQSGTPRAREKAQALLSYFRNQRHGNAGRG

Amino acid sequences for entries named in this document (tags omitted). Residues count along the entry.
UniProt Q9FL28, residues 24-1173: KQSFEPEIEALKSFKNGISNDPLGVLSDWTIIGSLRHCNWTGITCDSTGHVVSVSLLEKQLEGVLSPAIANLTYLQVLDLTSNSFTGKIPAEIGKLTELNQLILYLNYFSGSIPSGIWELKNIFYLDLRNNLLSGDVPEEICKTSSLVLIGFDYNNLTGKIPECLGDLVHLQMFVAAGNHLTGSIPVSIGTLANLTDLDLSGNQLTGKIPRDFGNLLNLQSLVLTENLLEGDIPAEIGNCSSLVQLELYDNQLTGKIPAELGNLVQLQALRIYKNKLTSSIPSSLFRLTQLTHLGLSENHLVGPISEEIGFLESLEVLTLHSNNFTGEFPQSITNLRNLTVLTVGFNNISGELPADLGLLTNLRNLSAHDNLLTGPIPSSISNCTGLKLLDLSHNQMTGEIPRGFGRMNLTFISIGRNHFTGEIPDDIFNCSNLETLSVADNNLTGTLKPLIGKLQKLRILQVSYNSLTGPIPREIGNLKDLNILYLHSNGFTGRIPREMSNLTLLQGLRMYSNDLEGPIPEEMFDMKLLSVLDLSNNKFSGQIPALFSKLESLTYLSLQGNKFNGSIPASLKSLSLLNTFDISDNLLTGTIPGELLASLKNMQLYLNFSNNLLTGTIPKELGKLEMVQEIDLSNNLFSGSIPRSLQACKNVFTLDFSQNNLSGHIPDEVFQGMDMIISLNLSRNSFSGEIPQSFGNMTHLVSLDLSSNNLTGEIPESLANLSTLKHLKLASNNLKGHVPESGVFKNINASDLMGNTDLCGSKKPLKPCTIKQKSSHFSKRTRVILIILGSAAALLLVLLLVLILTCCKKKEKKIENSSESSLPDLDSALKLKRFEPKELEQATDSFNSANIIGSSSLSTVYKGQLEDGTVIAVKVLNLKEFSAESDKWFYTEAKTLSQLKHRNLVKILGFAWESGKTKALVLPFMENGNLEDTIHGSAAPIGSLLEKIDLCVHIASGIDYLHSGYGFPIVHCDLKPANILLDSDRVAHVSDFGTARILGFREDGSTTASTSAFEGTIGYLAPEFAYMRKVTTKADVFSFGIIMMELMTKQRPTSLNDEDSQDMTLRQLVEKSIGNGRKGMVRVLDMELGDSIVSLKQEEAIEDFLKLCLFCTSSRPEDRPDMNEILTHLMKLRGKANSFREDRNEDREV
UniProt Q9RBS2: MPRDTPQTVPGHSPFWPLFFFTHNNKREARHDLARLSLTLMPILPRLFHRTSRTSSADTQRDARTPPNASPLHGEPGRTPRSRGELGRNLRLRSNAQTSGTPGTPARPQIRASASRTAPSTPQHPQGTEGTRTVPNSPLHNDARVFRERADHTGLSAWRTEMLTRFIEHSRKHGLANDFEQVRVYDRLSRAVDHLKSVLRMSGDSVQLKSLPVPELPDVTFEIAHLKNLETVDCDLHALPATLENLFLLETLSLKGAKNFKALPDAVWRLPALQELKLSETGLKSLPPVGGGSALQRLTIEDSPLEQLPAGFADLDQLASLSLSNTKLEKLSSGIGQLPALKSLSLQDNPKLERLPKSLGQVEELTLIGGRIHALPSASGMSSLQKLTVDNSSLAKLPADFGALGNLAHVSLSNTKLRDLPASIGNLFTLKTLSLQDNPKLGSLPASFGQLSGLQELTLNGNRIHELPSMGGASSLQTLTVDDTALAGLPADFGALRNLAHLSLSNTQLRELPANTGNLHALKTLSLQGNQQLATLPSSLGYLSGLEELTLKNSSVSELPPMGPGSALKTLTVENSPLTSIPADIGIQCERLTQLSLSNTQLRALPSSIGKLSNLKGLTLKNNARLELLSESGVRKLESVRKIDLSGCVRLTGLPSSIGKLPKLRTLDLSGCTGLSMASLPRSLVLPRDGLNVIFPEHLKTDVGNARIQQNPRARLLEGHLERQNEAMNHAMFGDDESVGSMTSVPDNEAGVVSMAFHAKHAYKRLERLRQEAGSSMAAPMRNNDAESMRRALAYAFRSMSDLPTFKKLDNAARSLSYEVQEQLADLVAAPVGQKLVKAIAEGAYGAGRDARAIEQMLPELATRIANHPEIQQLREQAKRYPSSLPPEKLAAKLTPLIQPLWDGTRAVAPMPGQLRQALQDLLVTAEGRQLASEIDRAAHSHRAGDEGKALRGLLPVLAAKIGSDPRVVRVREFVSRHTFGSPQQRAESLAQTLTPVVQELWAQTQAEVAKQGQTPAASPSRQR

AtPUB4-GFP (Arabidopsis) = biological target: T2, AtPUB4-GFP (Arabidopsis) (UniProt O22193); experiment: FRET or BRET
T2 sequence: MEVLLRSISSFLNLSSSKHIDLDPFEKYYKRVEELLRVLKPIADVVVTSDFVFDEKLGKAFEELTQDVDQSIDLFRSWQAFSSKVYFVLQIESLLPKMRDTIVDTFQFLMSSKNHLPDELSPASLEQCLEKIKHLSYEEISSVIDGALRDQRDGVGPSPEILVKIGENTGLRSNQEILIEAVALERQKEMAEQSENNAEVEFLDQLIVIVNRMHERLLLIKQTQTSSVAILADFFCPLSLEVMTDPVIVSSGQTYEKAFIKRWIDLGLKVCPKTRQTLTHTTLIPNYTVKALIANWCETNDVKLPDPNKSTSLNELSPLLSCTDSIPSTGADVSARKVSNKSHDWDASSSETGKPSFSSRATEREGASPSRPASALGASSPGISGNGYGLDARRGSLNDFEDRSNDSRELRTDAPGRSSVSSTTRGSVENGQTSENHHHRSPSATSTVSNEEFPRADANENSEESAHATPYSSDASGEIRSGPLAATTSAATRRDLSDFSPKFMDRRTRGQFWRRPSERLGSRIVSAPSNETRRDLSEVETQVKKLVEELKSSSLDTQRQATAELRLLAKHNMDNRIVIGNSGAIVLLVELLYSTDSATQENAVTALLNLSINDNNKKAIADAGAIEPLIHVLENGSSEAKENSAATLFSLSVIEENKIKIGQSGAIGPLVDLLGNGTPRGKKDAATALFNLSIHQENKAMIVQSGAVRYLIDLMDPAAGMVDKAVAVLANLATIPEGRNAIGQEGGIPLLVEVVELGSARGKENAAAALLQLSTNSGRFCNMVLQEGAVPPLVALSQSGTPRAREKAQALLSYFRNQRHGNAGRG

Molecule | binding (PUB4-FLAG (Arabidopsis)) | binding (AtPUB4-GFP (Arabidopsis))
FLS2 (from UniProt Q9FL28 24-1173) (receptor) | binds | –
RipAC-RFP (from UniProt Q9RBS2 1-1024) | – | binds
BAK1 (receptor, UniProt Q94F62 26-615) NAEGDALSALKNSLADPNKVLQSWDATLVTPCTWFHVTCNSDNSVTRVDLGNANLSGQLVMQLGQLPNLQYLELYSNNITGTIPEQLGNLTELVSLDLYLNNLSGPIPSTLGRLKKLRFLRLNNNSLSGEIPRSLTAVLTLQVLDLSNNPLTGDIPVNGSFSLFTPISFANTKLTPLPASPPPPISPTPPSPAGSNRITGAIAGGVAAGAALLFAVPAIALAWWRRKKPQDHFFDVPAEEDPEVHLGQLKRFSLRELQVASDNFSNKNILGRGGFGKVYKGRLADGTLVAVKRLKEERTQGGELQFQTEVEMISMAVHRNLLRLRGFCMTPTERLLVYPYMANGSVASCLRERPESQPPLDWPKRQRIALGSARGLAYLHDHCDPKIIHRDVKAANILLDEEFEAVVGDFGLAKLMDYKDTHVTTAVRGTIGHIAPEYLSTGKSSEKTDVFGYGVMLLELITGQRAFDLARLANDDDVMLLDWVKGLLKEKKLEALVDVDLQGNYKDEEVEQLIQVALLCTQSSPMERPKMSEVVRMLEGDGLAERWEEWQKEEMFRQDFNYPTHHPAVSGWIIGDSTSQIENEYPSGPR | binds | –
